Results on 29 targets are retold here after the supplement of paper PMC10849652.

The chains behind the UniProt entries cited, without tags or fusion partners. Where a name states a change or a piece, a line headed by the entry shows the natural chain unless it says otherwise.
UniProt Q07973: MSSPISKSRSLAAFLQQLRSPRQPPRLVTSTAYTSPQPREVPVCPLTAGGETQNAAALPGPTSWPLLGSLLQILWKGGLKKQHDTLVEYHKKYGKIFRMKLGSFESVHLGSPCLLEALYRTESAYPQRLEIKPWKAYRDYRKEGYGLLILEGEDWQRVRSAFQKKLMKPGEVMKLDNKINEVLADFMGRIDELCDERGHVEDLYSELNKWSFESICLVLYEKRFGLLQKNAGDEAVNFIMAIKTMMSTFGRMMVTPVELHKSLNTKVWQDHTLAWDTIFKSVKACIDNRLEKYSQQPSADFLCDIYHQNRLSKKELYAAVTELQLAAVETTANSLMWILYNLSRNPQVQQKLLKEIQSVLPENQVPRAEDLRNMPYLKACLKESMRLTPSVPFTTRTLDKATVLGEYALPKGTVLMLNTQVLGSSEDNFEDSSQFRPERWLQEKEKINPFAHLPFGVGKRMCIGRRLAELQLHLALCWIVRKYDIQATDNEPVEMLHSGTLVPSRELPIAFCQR
UniProt Q5H9S7: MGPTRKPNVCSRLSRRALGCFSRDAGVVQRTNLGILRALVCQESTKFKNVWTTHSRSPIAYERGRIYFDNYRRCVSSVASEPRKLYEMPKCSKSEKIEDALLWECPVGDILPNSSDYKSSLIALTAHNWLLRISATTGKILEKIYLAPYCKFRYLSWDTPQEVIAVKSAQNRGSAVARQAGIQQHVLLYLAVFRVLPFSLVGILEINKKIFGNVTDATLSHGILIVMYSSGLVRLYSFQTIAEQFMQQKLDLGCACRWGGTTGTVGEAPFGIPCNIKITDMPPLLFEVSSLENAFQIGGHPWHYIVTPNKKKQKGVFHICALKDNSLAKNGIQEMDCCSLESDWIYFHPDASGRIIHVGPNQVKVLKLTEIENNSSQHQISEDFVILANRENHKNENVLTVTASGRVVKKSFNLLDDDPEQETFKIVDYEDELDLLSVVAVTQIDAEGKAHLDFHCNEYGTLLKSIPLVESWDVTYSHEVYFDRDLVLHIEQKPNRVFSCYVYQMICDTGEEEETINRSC
UniProt Q9BWK5: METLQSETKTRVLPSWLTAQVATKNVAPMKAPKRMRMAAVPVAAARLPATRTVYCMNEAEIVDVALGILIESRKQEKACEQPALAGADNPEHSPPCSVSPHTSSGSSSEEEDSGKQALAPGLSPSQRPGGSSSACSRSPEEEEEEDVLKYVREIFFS
UniProt O43310: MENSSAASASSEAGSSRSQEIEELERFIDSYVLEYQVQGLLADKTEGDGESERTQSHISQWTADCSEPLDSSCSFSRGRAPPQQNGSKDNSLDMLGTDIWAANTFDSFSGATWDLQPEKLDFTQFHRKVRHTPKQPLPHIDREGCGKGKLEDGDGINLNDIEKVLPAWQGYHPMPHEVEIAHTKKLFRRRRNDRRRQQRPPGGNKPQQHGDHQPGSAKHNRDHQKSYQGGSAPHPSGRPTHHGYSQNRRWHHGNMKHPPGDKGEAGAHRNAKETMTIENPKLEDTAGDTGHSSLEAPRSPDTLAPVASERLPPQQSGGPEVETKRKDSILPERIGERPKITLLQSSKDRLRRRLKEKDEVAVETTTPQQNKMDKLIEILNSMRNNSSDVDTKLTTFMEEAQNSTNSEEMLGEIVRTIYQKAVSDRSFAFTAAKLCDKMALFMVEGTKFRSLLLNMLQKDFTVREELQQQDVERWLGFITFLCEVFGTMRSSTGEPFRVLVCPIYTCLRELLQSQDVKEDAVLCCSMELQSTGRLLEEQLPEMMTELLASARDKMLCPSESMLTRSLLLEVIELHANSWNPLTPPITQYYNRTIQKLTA
UniProt Q6VVX0: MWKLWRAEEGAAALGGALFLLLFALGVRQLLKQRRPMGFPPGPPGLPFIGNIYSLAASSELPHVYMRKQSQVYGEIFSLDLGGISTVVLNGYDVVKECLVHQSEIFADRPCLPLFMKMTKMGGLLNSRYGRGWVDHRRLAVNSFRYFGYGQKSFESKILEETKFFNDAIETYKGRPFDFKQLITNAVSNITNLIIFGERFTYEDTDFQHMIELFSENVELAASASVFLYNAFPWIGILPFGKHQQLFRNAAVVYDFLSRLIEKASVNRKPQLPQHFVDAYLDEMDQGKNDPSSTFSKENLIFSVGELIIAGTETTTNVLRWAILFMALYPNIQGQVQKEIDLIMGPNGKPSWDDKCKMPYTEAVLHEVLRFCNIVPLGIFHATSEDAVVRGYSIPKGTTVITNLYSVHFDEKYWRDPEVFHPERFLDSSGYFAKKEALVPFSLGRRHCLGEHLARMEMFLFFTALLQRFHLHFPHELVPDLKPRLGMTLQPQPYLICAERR
UniProt Q9Y5B0: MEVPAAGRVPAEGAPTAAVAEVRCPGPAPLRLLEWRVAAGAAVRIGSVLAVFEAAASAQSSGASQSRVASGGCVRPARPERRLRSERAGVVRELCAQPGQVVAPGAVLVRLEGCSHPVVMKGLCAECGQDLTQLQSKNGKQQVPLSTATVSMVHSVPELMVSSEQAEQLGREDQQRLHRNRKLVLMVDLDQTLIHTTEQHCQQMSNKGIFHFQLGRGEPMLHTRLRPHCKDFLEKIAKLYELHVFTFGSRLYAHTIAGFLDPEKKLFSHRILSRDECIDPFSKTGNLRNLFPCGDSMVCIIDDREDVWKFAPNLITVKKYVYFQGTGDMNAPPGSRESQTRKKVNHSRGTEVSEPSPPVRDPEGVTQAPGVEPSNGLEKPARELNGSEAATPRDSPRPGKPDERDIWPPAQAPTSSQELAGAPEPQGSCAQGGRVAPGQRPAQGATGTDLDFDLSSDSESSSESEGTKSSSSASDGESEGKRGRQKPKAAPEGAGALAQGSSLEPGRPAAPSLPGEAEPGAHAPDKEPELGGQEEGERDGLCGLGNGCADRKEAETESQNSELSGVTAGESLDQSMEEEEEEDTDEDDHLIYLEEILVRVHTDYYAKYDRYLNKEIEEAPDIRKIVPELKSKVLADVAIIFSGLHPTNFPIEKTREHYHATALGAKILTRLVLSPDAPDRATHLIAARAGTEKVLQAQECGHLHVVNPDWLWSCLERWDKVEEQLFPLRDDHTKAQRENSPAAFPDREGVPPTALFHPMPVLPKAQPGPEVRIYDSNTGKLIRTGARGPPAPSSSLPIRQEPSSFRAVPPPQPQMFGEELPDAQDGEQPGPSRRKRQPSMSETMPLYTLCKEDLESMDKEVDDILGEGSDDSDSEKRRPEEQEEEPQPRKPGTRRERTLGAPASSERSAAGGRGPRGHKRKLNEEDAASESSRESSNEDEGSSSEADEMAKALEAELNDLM
UniProt Q53TN4: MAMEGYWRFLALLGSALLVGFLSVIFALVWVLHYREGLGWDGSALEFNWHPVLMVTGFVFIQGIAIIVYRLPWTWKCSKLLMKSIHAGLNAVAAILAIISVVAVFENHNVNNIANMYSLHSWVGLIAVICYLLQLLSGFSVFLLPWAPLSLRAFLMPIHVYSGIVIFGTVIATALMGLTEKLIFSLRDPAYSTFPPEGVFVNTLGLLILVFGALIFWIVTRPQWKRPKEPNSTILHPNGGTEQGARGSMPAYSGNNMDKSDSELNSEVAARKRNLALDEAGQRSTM
UniProt Q92564: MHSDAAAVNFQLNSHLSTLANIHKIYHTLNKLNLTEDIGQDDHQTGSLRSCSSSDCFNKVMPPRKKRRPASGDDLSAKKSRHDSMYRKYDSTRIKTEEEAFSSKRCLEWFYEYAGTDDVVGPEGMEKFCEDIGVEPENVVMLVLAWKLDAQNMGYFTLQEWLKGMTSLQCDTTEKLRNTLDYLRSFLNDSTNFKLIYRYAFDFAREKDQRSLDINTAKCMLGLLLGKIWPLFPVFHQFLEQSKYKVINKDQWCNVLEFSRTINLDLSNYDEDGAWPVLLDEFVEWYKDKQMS
UniProt Q2TBE0: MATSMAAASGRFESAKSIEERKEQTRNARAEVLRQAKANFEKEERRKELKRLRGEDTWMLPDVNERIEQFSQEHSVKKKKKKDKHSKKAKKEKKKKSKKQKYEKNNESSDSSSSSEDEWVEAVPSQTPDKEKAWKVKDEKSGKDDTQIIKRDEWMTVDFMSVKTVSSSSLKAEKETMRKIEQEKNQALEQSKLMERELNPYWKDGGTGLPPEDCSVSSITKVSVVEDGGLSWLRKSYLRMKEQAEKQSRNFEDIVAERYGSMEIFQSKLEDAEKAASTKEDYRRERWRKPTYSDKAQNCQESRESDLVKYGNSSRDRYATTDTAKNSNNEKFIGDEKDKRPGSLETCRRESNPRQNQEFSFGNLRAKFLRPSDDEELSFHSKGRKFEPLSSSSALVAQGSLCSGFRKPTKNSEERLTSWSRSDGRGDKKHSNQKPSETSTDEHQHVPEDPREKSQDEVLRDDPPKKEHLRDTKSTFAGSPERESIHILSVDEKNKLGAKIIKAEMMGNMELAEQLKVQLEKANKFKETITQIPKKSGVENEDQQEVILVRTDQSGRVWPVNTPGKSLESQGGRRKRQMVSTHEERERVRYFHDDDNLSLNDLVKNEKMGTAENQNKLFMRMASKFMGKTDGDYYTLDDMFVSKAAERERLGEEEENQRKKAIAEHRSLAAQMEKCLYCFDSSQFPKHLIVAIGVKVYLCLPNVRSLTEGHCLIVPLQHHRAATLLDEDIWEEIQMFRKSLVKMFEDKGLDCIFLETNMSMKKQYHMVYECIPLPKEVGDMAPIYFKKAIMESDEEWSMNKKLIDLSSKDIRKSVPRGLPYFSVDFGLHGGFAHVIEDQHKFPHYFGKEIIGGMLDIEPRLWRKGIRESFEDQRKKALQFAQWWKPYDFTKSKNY
UniProt Q9NXE8: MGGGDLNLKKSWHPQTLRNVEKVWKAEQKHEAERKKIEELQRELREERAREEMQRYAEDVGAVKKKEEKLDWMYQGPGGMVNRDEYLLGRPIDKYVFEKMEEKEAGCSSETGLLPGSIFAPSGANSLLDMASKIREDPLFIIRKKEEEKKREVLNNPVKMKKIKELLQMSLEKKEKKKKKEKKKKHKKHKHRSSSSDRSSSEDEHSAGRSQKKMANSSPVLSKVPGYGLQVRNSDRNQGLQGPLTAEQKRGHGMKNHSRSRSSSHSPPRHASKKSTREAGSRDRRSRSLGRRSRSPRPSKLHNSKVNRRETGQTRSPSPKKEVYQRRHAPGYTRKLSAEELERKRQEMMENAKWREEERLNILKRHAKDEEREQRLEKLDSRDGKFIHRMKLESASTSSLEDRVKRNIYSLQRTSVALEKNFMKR
UniProt Q96SQ9: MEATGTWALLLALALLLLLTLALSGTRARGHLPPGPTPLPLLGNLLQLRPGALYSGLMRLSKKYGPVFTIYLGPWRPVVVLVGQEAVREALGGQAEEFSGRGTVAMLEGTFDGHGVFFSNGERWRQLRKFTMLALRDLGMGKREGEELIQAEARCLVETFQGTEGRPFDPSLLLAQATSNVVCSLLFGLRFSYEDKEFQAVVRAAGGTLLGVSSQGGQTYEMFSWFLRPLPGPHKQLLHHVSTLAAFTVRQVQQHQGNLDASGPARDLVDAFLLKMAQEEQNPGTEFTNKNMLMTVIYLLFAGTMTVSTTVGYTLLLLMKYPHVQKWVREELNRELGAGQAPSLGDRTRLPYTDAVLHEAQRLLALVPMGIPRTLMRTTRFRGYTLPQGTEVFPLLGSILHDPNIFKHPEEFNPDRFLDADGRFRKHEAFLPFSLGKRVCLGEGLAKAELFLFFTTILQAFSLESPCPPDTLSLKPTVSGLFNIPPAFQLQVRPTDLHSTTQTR
UniProt Q6ZWL3: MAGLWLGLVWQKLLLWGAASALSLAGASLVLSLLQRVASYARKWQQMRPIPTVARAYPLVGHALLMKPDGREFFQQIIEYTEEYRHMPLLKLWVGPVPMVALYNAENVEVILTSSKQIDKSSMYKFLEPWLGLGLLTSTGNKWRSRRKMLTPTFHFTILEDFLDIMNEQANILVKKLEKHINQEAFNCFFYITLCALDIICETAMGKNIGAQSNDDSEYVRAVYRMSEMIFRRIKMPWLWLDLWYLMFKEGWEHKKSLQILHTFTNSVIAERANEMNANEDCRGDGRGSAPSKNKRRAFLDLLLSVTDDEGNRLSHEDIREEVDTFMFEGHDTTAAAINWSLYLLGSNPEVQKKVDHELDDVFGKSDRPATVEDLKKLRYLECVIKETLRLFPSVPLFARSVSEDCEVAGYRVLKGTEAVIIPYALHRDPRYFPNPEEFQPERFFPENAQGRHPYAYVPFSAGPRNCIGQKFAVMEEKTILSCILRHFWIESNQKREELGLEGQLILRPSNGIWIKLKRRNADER
UniProt Q9BTE7: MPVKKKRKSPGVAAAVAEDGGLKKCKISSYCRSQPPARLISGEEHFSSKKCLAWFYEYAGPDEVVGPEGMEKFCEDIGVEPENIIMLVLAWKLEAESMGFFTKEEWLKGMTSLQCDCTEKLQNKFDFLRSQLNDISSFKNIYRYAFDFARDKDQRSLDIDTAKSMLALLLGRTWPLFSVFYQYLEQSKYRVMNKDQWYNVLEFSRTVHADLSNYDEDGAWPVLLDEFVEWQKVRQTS
UniProt P01037: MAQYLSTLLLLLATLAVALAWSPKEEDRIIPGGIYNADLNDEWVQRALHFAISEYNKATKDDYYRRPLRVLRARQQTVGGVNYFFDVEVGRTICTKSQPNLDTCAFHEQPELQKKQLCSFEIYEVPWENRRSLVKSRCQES

What all share (experiment): log2 fold change, soluble protein after heating vs DMSO (PISA); higher = thermal stabilisation; K562 cells, 10 uM, 30 min; active = over 0.2 and 3.5 SD of the protein, either way, in both replicates (recomputed)
Compound in assay [1]: CC1=C(SC2=C1C(=N[C@H](C3=NN=C(N32)C)CC(=O)N)C4=CC=C(C=C4)Cl)C
The method, boiled down:
(§1)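 For each measurement, 10 μM compound was applied for 30 min to K562 cells at 2×10^6 cells/mL. Aliquots were heated for 3 min across 48°C-58°C, pooled, and extracted in PBS with 0.5% NP-40 at 4°C; the supernatant after 21,000xg for 90 min was soluble protein. This was quantified by TMTpro 16plex LC-MS/MS with channel sums equalised, and thermal stability was reported relative to control samples from duplicates, on a log2 fold-change scale.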

Compound in assay [2]: CC1=C2C(=CC=C1)N=C(N(C2=O)C3=CC=CC=C3C)CN4C=NC5=C(N=CN=C54)N
The method, boiled down:
as §1

Compound in assay [3]: Cc1sc2c(c1C)C(c1ccc(Cl)cc1)=N[C@@H](CC(=O)OC(C)(C)C)c1nnc(C)n1-2
A digest of the protocol: as §1

Compound in assay [4]: c1ccc([C@@H]2C[C@H]2NC2CCNCC2)cc1
The method, boiled down:
as §1

Compound in assay [5]: C1=CC=C(C=C1)[C@H](COC2=CC3=C(C=C2)NC(=O)N3)NC(=O)C4=CC=CN(C4=O)CC5=CC(=C(C=C5)F)F
A digest of the protocol: as §1

The other results are listed elsewhere or left out.

Consider CTSS (UniProt P25774), for which the log2 fold change is inactive: -0.004 in assay [1], inactive: -0.033 in assay [2], inactive: -0.192 in assay [3] and inactive: 0.037 in assay [4].
On to CYP24A1 (UniProt Q07973), for which the log2 fold change in assay [5] was inactive: 0.17; in assay [2], inactive: -0.175; in assay [3], inactive: 0.266.
As for CTDSPL2 (UniProt Q05D32), the results for the log2 fold change in assay [1] and in assay [4] were inactive: 0.499 and inactive: -0.142, respectively.
Regarding CSRP2 (UniProt Q16527), the log2 fold change in assay [1] was inactive: -0.187; in assay [2], inactive: -0.012; in assay [3] it was inactive: 0.087; in assay [4] it was inactive: 0.092.
As to CST4 (UniProt P01036), the log2 fold change is inactive: 0.248 in assay [5], inactive: -0.019 in assay [1], inactive: 0.112 in assay [2] and inactive: -0.301 in assay [4].
For the target DCAF17 (UniProt Q5H9S7), in assay [2], the log2 fold change was inactive: -0.041.
On to CYREN isoform 4 (UniProt Q9BWK5), for which the log2 fold change in assay [5] is inactive: 0.347; in assay [2], inactive: 0.052.
Regarding CTIF (UniProt O43310), the log2 fold change is inactive: 0.189 in assay [1], inactive: -0.671 in assay [2], inactive: -0.11 in assay [3] and inactive: -0.114 in assay [4].
On to CTDSP1 (UniProt Q9GZU7), for which the values for the log2 fold change in assay [2] and in assay [3] were inactive: -0.114 and inactive: -0.065, respectively.
Turning to CYP2R1 (UniProt Q6VVX0), the log2 fold change in assay [5] was inactive: 0.068; in assay [1] it was inactive: -0.01; in assay [3] it was inactive: 0.055; in assay [4] it was inactive: -0.134.
As to DBNL (UniProt Q9UJU6), the log2 fold change in assay [1] was inactive: -0.04; in assay [4], inactive: -0.099.
In the case of CTDP1 (UniProt Q9Y5B0), the log2 fold change in assay [1] is inactive: -0.116; in assay [3] it was inactive: 0.151; in assay [4] it was inactive: 0.072.
As for CYBRD1 (UniProt Q53TN4), the results for the log2 fold change in assay [1], in assay [2] and in assay [4] were inactive: -0.064, inactive: -0.012 and inactive: 0.007, respectively.
In the case of DCUN1D4 isoform 3 (UniProt Q92564), the log2 fold change in assay [1] is inactive: 0.08; in assay [2], inactive: 0.107; in assay [3], inactive: 0.006; in assay [4] it was inactive: 0.013.
For CWF19L2 (UniProt Q2TBE0), the log2 fold change in assay [1] is inactive: -0.169; in assay [3] it was inactive: 0.028; in assay [4], inactive: 0.135.
In the case of CYREN (UniProt Q9BWK5), in assay [2], the log2 fold change is inactive: -0.008.
Consider CWC25 (UniProt Q9NXE8), for which the log2 fold change in assay [5] is inactive: -0.017; in assay [1] it was inactive: -0.297; in assay [3], inactive: 0.198; in assay [4] it was inactive: 0.125.
CXorf40B (UniProt Q96DE9): the log2 fold change is inactive: 0.154 in assay [1] and inactive: 0.201 in assay [4].
Consider CYB561A3 isoform 2 (UniProt Q8NBI2), for which the log2 fold change in assay [5] was inactive: 0.033; in assay [1], inactive: -0.009; in assay [3], inactive: -0.075; in assay [4] it was inactive: 0.002.
On to CXXC1 isoform 2 (UniProt Q9P0U4), for which the log2 fold change was inactive: -0.014 in assay [1], inactive: 0.221 in assay [2], inactive: 0.049 in assay [3] and inactive: 0.057 in assay [4].
Take CYP2S1 isoform 2 (UniProt Q96SQ9): the values for the log2 fold change in assay [5], in assay [1] and in assay [4] were inactive: 0.111, inactive: 0.145 and inactive: -0.132, respectively.
As to CYP4V2 (UniProt Q6ZWL3), the log2 fold change in assay [1] is inactive: 0.063; in assay [2] it was inactive: 0.059; in assay [4], inactive: -0.027.
For the target DCUN1D5 (UniProt Q9BTE7), the results for the log2 fold change in assay [2] and in assay [3] were inactive: 0.077 and inactive: -0.261, respectively.
CYB5A (UniProt P00167): the log2 fold change in assay [5] was inactive: 0.015; in assay [2], inactive: 0.026.
DAAM1 (UniProt Q9Y4D1): the log2 fold change was inactive: -0.37 in assay [1] and inactive: 0.259 in assay [4].
Regarding CYC1 (UniProt P08574), the log2 fold change was inactive: 0.018 in assay [5]; inactive: 0.016 in assay [1]; inactive: 0.03 in assay [2]; inactive: -0.038 in assay [3]; inactive: 0 in assay [4].
As to DCP2 (UniProt Q8IU60), the log2 fold change is inactive: -0.121 in assay [1], inactive: -0.044 in assay [2], inactive: 0.077 in assay [3] and inactive: 0.068 in assay [4].
On to CYTH2 (UniProt Q99418), for which the log2 fold change in assay [5] was inactive: -0.076; in assay [3], inactive: -0.136.
For the target CST1 (UniProt P01037), the figures for the log2 fold change in assay [5] and in assay [2] were inactive: 0.174 and inactive: 0.027, respectively.
